{"source": "PubChem BioAssay AID504444", "about": "(National Center for Advancing Translational Sciences (NCATS), 2011)", "note": "Screen size: about 360,000 compounds; about 7,500 (2.1%) were called active. The shares of active, inactive and inconclusive entries below differ from those in the screen. The call rests on the fitted dose curve; in most records, active means well fitted inhibition curve with a large enough effect; inconclusive means small, poorly fitted or top-dose-only effect, or effect the other way; inactive means flat fitted curve, though single readings scatter. A potency beside an inconclusive call is a rough fit, not a confirmed value. Potency means the concentration at half of the fitted maximal effect.", "data": [{"experiment": "Nrf2 qHTS screen for inhibitors; further: nearly all actives have a fitted effect of over 60% in size", "details": "A549 ARE-Fluc reporter, luciferase luminescence, 18-24 h; series mostly up to 46 µM", "method_in_brief": "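In this cell-based qHTS, ARE-driven firefly luciferase in A549 cells reports Nrf2 activity; the luminescent signal after BugLite lysis is the measured value, with a prior CellTiter-Fluor read for cell health.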", "values": [{"smiles": "O=C(Nc1cccc(Cl)c1)C1C2CCC3C(CCC21)C3(Cl)Cl", "note": "(stereo not drawn)", "Potency": "inconclusive: 16.4 µM [falling, single point]"}, {"smiles": "Cc1[nH]c2ccccc2c1C(=O)/C=C\\c1ccccc1Cl", "Potency": "inconclusive: 6.51 µM [activator, partial curve]"}, {"smiles": "Cc1cccc(-n2ncc(C(=O)N3CCOCC3)c2C2CCN(C(=O)OC(C)(C)C)CC2)c1", "Potency": "inconclusive: 13 µM [activator, partial curve, poor fit]"}, {"smiles": "CC(C)N(C(=O)Cn1cc(SCC(=O)Nc2ccccc2F)c2ccccc21)C(C)C", "Potency": "inconclusive: 14.6 µM [falling, single point]"}, {"smiles": "C=CCc1cc(C=O)cc(OC)c1OCc1ccc(C(=O)O)cc1", "Potency": "inconclusive: 32.6 µM [activator, single point]"}, {"smiles": "CN(C)S(=O)(=O)c1ccc(Cl)c(NC(=O)COC(=O)CN2C(=O)C3CCCCC3C2=O)c1", "note": "(stereo not drawn)", "Potency": "inactive"}, {"smiles": "CCC(CC)c1nnc(NC(=O)c2ccc3ccccc3n2)s1", "Potency": "inconclusive: 1.58 µM [activator, full curve, poor fit]"}, {"smiles": "COc1ccc(C2CC(=O)c3cc(OC)ccc3O2)cc1", "note": "(stereo not drawn)", "Potency": "inconclusive: 32.6 µM [activator, partial curve, poor fit]"}, {"smiles": "CCOC(=O)c1c(NC(=O)C(C)Sc2cn(CCNC(=O)c3c(F)cccc3F)c3ccccc23)sc2c1CCC2", "note": "(stereo not drawn)", "Potency": "inconclusive: 7.31 µM [falling, partial curve, poor fit]"}, {"smiles": "Cn1c(=O)oc2cc(S(=O)(=O)NC(Cc3ccccc3)C(=O)Nc3ccc(F)cc3)ccc21", "note": "(stereo not drawn)", "Potency": "inactive"}, {"smiles": "O=C(O)CC(Cc1ccc(Cl)cc1)C(=O)NCc1ccccc1", "note": "(stereo not drawn)", "Potency": "inconclusive: 18.4 µM [falling, partial curve, poor fit]"}, {"smiles": "CCn1c(C(=O)NCc2ccc(F)cc2)cc2oc3ccccc3c21", "Potency": "inconclusive: 4.61 µM [activator, full curve, poor fit]"}, {"smiles": "COc1cccc(CNC(=O)c2cc(C)nc3c2c(C)nn3-c2ccc(C)cc2)c1", "Potency": "inactive"}, {"smiles": "CCOC(=O)CN1C(=O)C(Sc2n[nH]c(-c3ccccc3)n2)CCc2ccccc21", "note": "(stereo not drawn)", "Potency": "inconclusive: 29.1 µM [falling, single point]"}, {"smiles": "COc1ccc(C2=Nn3c(nnc3-c3cc(OC)ccc3OC)SC2)c(OC)c1", "Potency": "inconclusive: 2.91 µM [activator, partial curve, poor fit]"}, {"smiles": "Cc1ccc(Cn2c(C(=O)O)c(CNCc3ccc(OC(C)C)cc3)c3ccc(C)cc32)cc1", "Potency": "inconclusive: 29.1 µM [falling, single point]"}, {"smiles": "COc1ccc(C(=O)N[C@H](C(=O)Nc2nc3ccccc3[nH]2)C(C)C)cc1", "Potency": "inconclusive: 2.31 µM [activator, full curve, poor fit]"}, {"smiles": "C/C(=N\\NC(=O)c1ccncc1)c1ccc(N(C)C)cc1", "Potency": "inconclusive: 4.11 µM [activator, partial curve, poor fit]"}, {"smiles": "O=S(=O)(NCc1cn2ccsc2n1)c1cccs1", "Potency": "inconclusive: 25.9 µM [activator, single point]"}, {"smiles": "CC(=O)c1cccc(NC(=O)c2ccc3c(c2)OCO3)c1", "Potency": "inconclusive: 8.2 µM [activator, partial curve]"}, {"smiles": "NC(=O)c1sc2nc3c(c(-c4ccccc4)c2c1N)CCC3", "Potency": "active: 9.2 µM"}, {"smiles": "Cc1ccc(C(=O)NCC(=O)OC(C(=O)Nc2cc(C(F)(F)F)ccc2Cl)c2ccccc2)cc1", "note": "(stereo not drawn)", "Potency": "inconclusive: 29.1 µM [falling, partial curve, poor fit]"}, {"smiles": "Oc1ccc(CNc2ccc(F)cc2Cl)c2cccnc12", "Potency": "inconclusive: 18.4 µM [falling, single point]"}, {"smiles": "COc1cccc(OCc2nc3ccccc3n2CCOc2ccc(C)cc2)c1", "Potency": "inconclusive: 29.1 µM [falling, single point]"}, {"smiles": "COc1cccc(-c2ccc(C#N)c(=O)[nH]2)c1", "Potency": "inconclusive: 20.6 µM [activator, single point]"}, {"smiles": "O=C(Nc1ccc(N2CCOCC2)c(Cl)c1)C1CCCCC1", "Potency": "inactive"}, {"smiles": "CN(C)c1ccc(CN(Cc2ccco2)C(=O)c2ccc(C(C)(C)C)cc2)cc1", "Potency": "inconclusive: 18.4 µM [falling, single point]"}, {"smiles": "O=C(NCCc1ccc(Cl)cc1)c1cnc2sc(N3CCOCC3)nn2c1=O", "Potency": "inconclusive: 18.4 µM [activator, single point]"}, {"smiles": "COc1cc(OC)c(Nc2nc3ccccc3c3nncn23)cc1Cl", "Potency": "inactive"}, {"smiles": "Cc1oc(-c2cccc(Cl)c2)nc1CSc1nncn2c1cc1occc12", "Potency": "inconclusive: 29.1 µM [activator, single point]"}, {"smiles": "CCN(Cc1ccc(OC)c(F)c1)C(=O)c1cc2ccccc2o1", "Potency": "inconclusive: 23.1 µM [activator, single point]"}, {"smiles": "COc1ccc(Nc2nc3ccccc3nc2NS(=O)(=O)c2cccs2)cc1", "Potency": "active: 16.4 µM"}, {"smiles": "COc1ccc(CC(=O)Nc2ccc3nc(Nc4ccc(OC)cc4)cc(C)c3c2)cc1", "Potency": "inconclusive: 10.3 µM [falling, partial curve]"}, {"smiles": "O=C(Nc1ccc(F)cc1)N(CCCN1CCOCC1)Cc1cc2cc3c(cc2[nH]c1=O)OCCO3", "Potency": "inactive"}, {"smiles": "Cc1cc(C)c(NC(=O)CN2C(=O)NC3(CCc4ccccc43)C2=O)c(Cl)c1", "note": "(stereo not drawn)", "Potency": "inconclusive: 32.6 µM [activator, single point]"}, {"smiles": "COc1ccc(OC)c(NS(=O)(=O)c2cc3c(cc2Cl)N(C(C)=O)CCO3)c1", "Potency": "inconclusive: 36.6 µM [activator, single point]"}, {"smiles": "N#Cc1ccc(C(=O)Nc2ccc([N+](=O)[O-])cc2)c(F)c1", "Potency": "inconclusive: 25.9 µM [falling, partial curve, poor fit]"}, {"smiles": "Cc1cc(C(=O)Nc2ccc(Nc3ccccc3)cc2)ccc1[N+](=O)[O-]", "Potency": "inconclusive: 5.8 µM [falling, partial curve, poor fit]"}, {"smiles": "S=C(Nc1cccc2ccccc12)NN1CCCCCC1", "Potency": "inconclusive: 1.03 µM [activator, full curve]"}, {"smiles": "O=C1C=C(c2cccc(Cl)c2)C[C@@H](c2ccc(F)cc2)C1", "Potency": "inactive"}, {"smiles": "CC(/C=N/NC(=O)c1cc(-c2ccncc2)nc2ccccc12)=C\\c1ccco1", "Potency": "inactive"}, {"smiles": "O=C(CSc1nc2cc(C(=O)NC3CCCC3)ccc2c(=O)n1CC1CCCO1)c1cccc(Cl)c1", "note": "(stereo not drawn)", "Potency": "inconclusive: 11.6 µM [falling, partial curve, poor fit]"}, {"smiles": "O=C(NC(NC(=S)N1CCOCC1)C(Cl)(Cl)Cl)c1cccc2ccccc12", "note": "(stereo not drawn)", "Potency": "inactive"}, {"smiles": "COCCNC(=O)c1cc(-c2ccc3c(c2)OCO3)on1", "Potency": "inconclusive: 8.2 µM [activator, partial curve]"}, {"smiles": "COc1ccc(OC)c(CCNC(=O)CS(=O)(=O)Cc2nc(-c3cccc(Cl)c3)oc2C)c1", "Potency": "inconclusive: 29.1 µM [falling, single point]"}, {"smiles": "CCOC(=O)c1ccc(N2C(=O)c3n[nH]c(-c4cccs4)c3C2c2ccc(OCC)cc2)cc1", "note": "(stereo not drawn)", "Potency": "inconclusive: 29.1 µM [falling, single point]"}, {"smiles": "COCCc1nn2c(=O)cc(COC(=O)C(c3ccccc3)c3ccccc3)nc2s1", "Potency": "inconclusive: 25.9 µM [activator, single point]"}, {"smiles": "COc1ccc(-n2nc(C(=O)NCC(=O)N3CCCCC3)c3ccccc3c2=O)c(OC)c1", "Potency": "inconclusive: 4.11 µM [activator, full curve]"}, {"smiles": "CCCc1nnc(SCC(=O)Nc2cccc(Cl)c2Cl)o1", "Potency": "inactive"}, {"smiles": "CCOC(=O)N1CCN(C(=O)COC(=O)c2ccccc2NCCO)CC1", "Potency": "inactive"}, {"smiles": "Cc1cc(NC(=O)n2ncc3c(C)cccc32)ccc1Br", "Potency": "inactive"}, {"smiles": "N#C/C(=C(/O)c1ccc([N+](=O)[O-])s1)c1nc2ccccc2[nH]1", "Potency": "inconclusive: 3.26 µM [falling, full curve]"}, {"smiles": "CCC1(CC)Cc2ccccc2-c2nc(NCCCO)[nH]c(=O)c21", "Potency": "inactive"}, {"smiles": "Cc1ccc(C(=O)NNC(=O)c2ccc3ccccc3c2)cc1", "Potency": "inconclusive: 6.51 µM [activator, partial curve]"}, {"smiles": "COC(=O)C1=C(O)/C(=C\\c2cc(C)n(-c3ccccc3F)c2C)N=C1C", "Potency": "inactive"}, {"smiles": "CCCc1cc2c(cc1NC(=O)c1ccccc1Cl)OCO2", "Potency": "inconclusive: 16.4 µM [activator, partial curve]"}, {"smiles": "COc1cccc(CCNC(=O)c2c(O)nc3c(C)cccn3c2=O)c1", "Potency": "inconclusive: 11.6 µM [activator, partial curve]"}, {"smiles": "c1ccc2sc(Sc3ncnc4sccc34)nc2c1", "Potency": "inconclusive: 8.2 µM [activator, partial curve, poor fit]"}, {"smiles": "O=S(=O)(c1ccc(N2CC=C(c3ccccc3)CC2)nc1)N1CCCC1", "Potency": "inconclusive: 14.6 µM [falling, partial curve]"}, {"smiles": "CCN1CCN(c2ccc(S(=O)(=O)N3CCOCC3)cc2NC(=O)c2cc(Cl)nc3ccccc23)CC1", "Potency": "inactive"}, {"smiles": "CCc1ccc(NC(=O)CC2C(=O)N(c3cccc(OC)c3)C(=O)N2Cc2ccc(F)cc2)cc1", "note": "(stereo not drawn)", "Potency": "inactive"}, {"smiles": "COc1ccc(NC(=O)C2CCCN(S(C)(=O)=O)C2)cc1Cl", "note": "(stereo not drawn)", "Potency": "inactive"}, {"smiles": "Cc1ccc(-n2c3c(cc(C(=O)Nc4ccccc4C(N)=O)c2=O)C(=O)CC(C)(C)C3)cc1", "Potency": "inactive"}, {"smiles": "Cc1cc(C)c(NC(=O)CSc2ccc(-c3ccccn3)nn2)c(C)c1", "Potency": "inactive"}, {"smiles": "CN(C)CCNC(=O)CN1C(=O)COc2ccc(S(=O)(=O)N3CCCC3)cc21", "Potency": "inactive"}, {"smiles": "COc1ccc(C2=Nc3ccccc3NC(c3cccs3)=N2)cc1", "Potency": "inactive"}, {"smiles": "O=C(CSc1nnc2ccc(-c3ccc(F)cc3)nn12)N1CCOCC1", "Potency": "inconclusive: 6.51 µM [activator, partial curve, poor fit]"}, {"smiles": "COc1ccc(/C=C2\\SC(=O)N(CC(=O)Nc3cccc(C)c3)C2=O)cc1O", "Potency": "inconclusive: 29.1 µM [falling, single point]"}]}]}
